The record followed here is PubChem BioAssay AID1347423 (Functional Genomics Laboratory (NCATS/FGL), 2020).

In all, about 52,000 sequences went through this assay and about 210 (0.4%) were called active.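 Rule for the calls: active = gene whose silencing raises cell survival under the drug, median off-target-corrected z-score across its silencing RNAs 2 or more; inactive = the rest.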 The list shows a part of the results.

The assay is described as follows: Resistance to Poly (ADP-Ribose) Polymerase inhibitor: Gene Identification via Genome-wide siRNA Screen. The note with it: mouse BRCA2 R2336H ES cells, olaparib, CellTiter-Glo viability; hits give high values. A digest of the protocol:
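Mouse BRCA2 R2336H ES cells were reverse-transfected with siRNA (20 nM final), treated at 48 h with 500 nM olaparib, and read by CellTiter-Glo after 72 h. Scores: MAD-based z per siRNA, median per gene, seed off-target correction.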
In general terms: In ATP-based viability assays light output follows the ATP content of the culture.
For “GGACCGAGCCAGAUUCUUCTT against 4930500E24Rik”, the z-score was inactive: 0.586.

Consider GCAAUAAUAGAAUGAGAAGTT against Ott, for which the z-score is inactive: 0.755.

On to GGCUCUUGGGAGAUUUAAATT against Sp5, for which the z-score was inactive: 0.923.

With “GGCAGAAUGGGCUUAUGUCTT against 5730502D15Rik”, the z-score is inactive: -2.66.

As to GGACCGGUUUAUUUGGCGGTT against Mmp2, the z-score was inactive: -0.987.

With “CCGACUGCUCGUAAAUUCATT against 2410011G03Rik”, the z-score is inactive: 0.899.

Consider GGCUUUCUAUACGUGUGCUTT against Olfr1161, for which the z-score is inactive: 0.0115.

As to GAGGAUUCUGUAGGUCUUCTT against Defb19, the z-score is inactive: -0.399.

Take GGGCAAAAAAGGUCUAUUCTT against Rfpl4: the z-score is inactive: -0.82.

Turning to GGAAAUUACUUUGAUACUCTT against Rfx3, the z-score was inactive: -0.206.

With GGCUUAUUUUUCUUCAGUUTT against Ext1, the z-score is inactive: -0.0515.

On to “GGAGAAAUCUCAAAGAUCUTT against 4930563E19Rik”, for which the z-score is inactive: 0.925.

“CCCUAUGGUGAAAUCUGUCTT against 3110038B19Rik”: the z-score is inactive: -0.585.

Take “GGCCUCAAGGUGAUGGAAATT against 5430419D17Rik”: the z-score is inactive: 0.581.

On to GGGAGUGGGAUUUUGCCUUTT against Sfn, for which the z-score was inactive: -0.125.

As for GGAUAGCAAUUGUCUUUCATT against 6.72E+21, the z-score was inactive: -0.794.

Take GUUACUUUGAUGUUGUCUATT against Pdgfrl: the z-score is inactive: 0.387.

GCAGAUUUAUUCCUCACGATT against D8Wsu49e: the z-score is inactive: 1.63.

As to “GGACUCUUUUUUUACCUUGTT against 2310036O22Rik”, the z-score is inactive: -1.83.

For GGGCUACAUAACCAUCCGUTT against Lu, the z-score was inactive: 0.0385.

For CCAAAUAUCCGGCCAUGACTT against Lgals6, the z-score was inactive: -0.132.

In the case of GCUGACAGACUUAUUACUUTT against Cul4b, the z-score is inactive: -1.91.

On to GGAGUCUUAUGUCUUGGAUTT against Aldh1b1, for which the z-score is inactive: 0.275.

For GGGAAAAAACCCUGUUCUUTT against Zfp11, the z-score is inactive: -0.0585.

On to “CCUGAUAAGCAAAUACGGCTT against 2210417D09Rik”, for which the z-score was inactive: -0.0638.

On to GGCUCAAGGAACAUGAGGCTT against BC048502, for which the z-score is inactive: -0.578.

Regarding GGGACUCCCAAACAACAAATT against Lair1, the z-score was inactive: 0.167.

For “CCUGUAGCAUUACGUUAGCTT against 9030611K07Rik”, the z-score was inactive: 0.841.

Consider GGAGAUCAUCAACAUCGCCTT against Nptx2, for which the z-score was inactive: 1.71.

Turning to GGUGGACAAGGCAAUACAGTT against Mmp20, the z-score is inactive: -0.672.

For “GGGACGAUUACCCUUAUUGTT against 1700084J12Rik”, the z-score is inactive: -0.0279.

In the case of “GGGAAAAAAAAAAAUCACCTT against 4831426I19Rik”, the z-score is inactive: -0.292.

As to “CCAGACGAUCUCAUGAUGUTT against 4931407G18Rik”, the z-score was inactive: -0.353.

Regarding AUGAAAGCAUUCUAAGAAGTT against LOC434320, the z-score is inactive: 0.452.

With GGUUCAGACAAGCAUCUAGTT against Sbp, the z-score is inactive: -0.786.

In the case of CGGGUUUUUCCAGUAGAUUTT against Ebag9, the z-score is inactive: 0.593.

As for GGAGGCAAAAAUGAUGCUATT against Slpi, the z-score is inactive: 0.655.

Consider “GGAUUACAUUUGUUUUACCTT against E130304F04Rik”, for which the z-score was inactive: 1.15.

With GCUAUGACAGUUAUGCUACTT against Cirbp, the z-score was inactive: 2.6.

With CCCACUGUGAAGAGAGGCATT against Xlr3b, the z-score was inactive: -1.96.

Consider GGUAAUAGAGGAGAAGAAUTT against Phc1, for which the z-score is inactive: -1.31.

For the sequence GCUAAUUCUCAGAACUCUATT against Tas2r130, the z-score is inactive: 0.0941.

With “GGUGUGGACCCUAAGCUUUTT against C530028O21Rik”, the z-score was inactive: -0.894.

For the sequence “GCUUCGUGUGCUUUACCUGTT against 6430402H13Rik”, the z-score was inactive: 0.851.

Consider GCUAGCUAGAACAAGUAAATT against Slmap, for which the z-score was inactive: -0.317.

Turning to GGCCGUACAUCAACAUUACTT against C1qtnf6, the z-score is inactive: -0.927.

Take GGAACAGAGAGUGGAGCUUTT against Rnd1: the z-score is inactive: -1.16.

GCAACGUGGUCUAUGAAUUTT against Disp2: the z-score is inactive: 0.352.

Regarding GGAUUACCCAUUUGUUCCUTT against Adam4, the z-score is inactive: 0.149.

Take GGAUGUGGUUUUCACUGACTT against Cat: the z-score is inactive: 1.87.

For GGCUGCUCAUAUUGGUCAATT against Sphk2, the z-score is inactive: -0.235.

With “GGCAUCUUUCAUAAAACCGTT against 2610204G22Rik”, the z-score is inactive: -0.767.

Consider GGACUUCAAGGACUUCUACTT against Crtap, for which the z-score is inactive: 0.0967.

For GGGACUUAUGUACAACUUCTT against Idua, the z-score is inactive: 0.129.

In the case of GGUACAGUGCAUCGACAUGTT against Eng, the z-score was inactive: -0.836.

As for “CGUGCUCAUAAUUUUGAACTT against 2600014C01Rik”, the z-score was inactive: -0.0242.

As for AGCAUCCUAAAUUCAAAAATT against Try10l, the z-score is inactive: 1.03.

On to GGAAAAAAAACACUGACUGTT against Hoxa5, for which the z-score is inactive: 0.197.

“GCAACUGGUGAUAAGGUGUTT against E030034P13Rik”: the z-score was inactive: -1.6.

Consider CGAAGGAGUCAAAACUGGGTT against Klk8, for which the z-score is inactive: -0.352.

GGAAGAAUGUAGGAGGAAGTT against Sln: the z-score is inactive: -0.446.

Consider GGUUAGGUUGAUGAAUAAGTT against Eif4ebp2, for which the z-score was inactive: -0.495.

Consider GGAGACCUUCAAAAAGGUGTT against Tmprss4, for which the z-score was inactive: 0.015.

For GGAUCAUUUCUGGCAAGAGTT against Irf7, the z-score is inactive: -0.0691.

With GGAGAAUCCUCAUUGACACTT against Lactb2, the z-score is inactive: 0.489.

For “CCGCCAGGGAAACAAAUACTT against 0610030H11Rik”, the z-score is inactive: -2.42.

Turning to “GGCCACUAUAACUGAUCCGTT against 4930577M16Rik”, the z-score was inactive: 1.95.

Take GGGAAACUUGAACUUUGAUTT against Tsga2: the z-score is inactive: -2.32.

Regarding GCGGUUUCGAACAAUCACGTT against Rab8a, the z-score is inactive: -0.53.

As to GGGAUGUGUCCUGACUUUUTT against BC066028, the z-score is inactive: -1.12.

As for GGAGUUGCCAUGCUCAACATT against Olfr808, the z-score was inactive: -1.39.

Consider GUUACCUCAGUGUUAUACUTT against Olfr45, for which the z-score was inactive: 0.91.

Take CCUAACUCACAACAAUUACTT against Olfr304: the z-score was inactive: 0.65.

With GGAUUUUCAAUUCAUACCCTT against Psmb1, the z-score is inactive: 2.18.

Consider GGGUGAGAUAAUUGAAAAGTT against Slc12a6, for which the z-score is inactive: 0.205.

With GCGUGCGGAUAACAAAAGCTT against D11Wsu47e, the z-score was inactive: 0.303.

Regarding GGCGAAAAAUACAAAUUCCTT against Vamp1, the z-score was inactive: 0.596.

Take “GGAGCAAGGAAAGUGGCUGTT against 2010001O09Rik”: the z-score is inactive: -0.475.

Take “GCUUUUGAAUGUGUGGACUTT against 0610033E06Rik”: the z-score is inactive: 1.19.

For CGAUUUGCCCAAUAAAGAATT against Scn9a, the z-score was inactive: 0.365.

As for GGCUAUCACAUGUAACUUCTT against Lman1l, the z-score was inactive: -1.58.

Consider GCAAUCACCAAAUCACUAGTT against Fstl1, for which the z-score is inactive: -1.71.

Regarding GAGACAAUUGUAACAUUCUTT against Olfr176, the z-score is inactive: -0.95.

GGUGGAUGGCUUCACGCAUTT against Calr3: the z-score was inactive: 0.388.

As to “GGGAGGUAAGAAUCUUUAUTT against 4930548G07Rik”, the z-score was inactive: -0.29.

Regarding GGGAGAAUCUAACUAAGCCTT against Sirt7, the z-score was inactive: -0.952.

Regarding GGCAUUCCUAAUGACACGGTT against Dpep3, the z-score was inactive: -0.125.

Turning to “GGAUACCUAGUUCUUAGUUTT against B430216B18Rik”, the z-score was inactive: -0.048.

Turning to GGAUUUUCUCUAUGCAGGCTT against BC057552, the z-score is inactive: -0.273.

For the sequence GGAAAACCUCAAACCUAACTT against Oas2, the z-score was inactive: -0.124.

In the case of AAGGUGCAGAGUUACACGUTT against H2-T10, the z-score was inactive: -0.306.

Consider GCUAUGGAGGCUAUGGAUGTT against Krtap16-9, for which the z-score was inactive: 1.3.

Consider GGUCAGAAGUUAAUUUAUGTT against Rad23b, for which the z-score is inactive: -1.23.

Regarding GCCUAAGAAGGAUAGUAUUTT against Taf5, the z-score is inactive: -0.93.

Regarding “CGAUUCAUUCAGUUUGUAATT against 4930532D21Rik”, the z-score was inactive: -1.19.

Regarding GGUUCUCGAAAUAAGAAUGTT against Mcm8, the z-score was inactive: 0.117.

On to GCAUCUCGAUCAUAUCAUGTT against Pgm3, for which the z-score is inactive: 1.11.

Take GGAAUAUUCUAUUCCCUUUTT against Trim25: the z-score is inactive: 0.694.

On to GUGAAAGUCGGAUUCAGUGTT against Acat2, for which the z-score was inactive: -1.34.

With GGAAGUAUUACCCUCAAUUTT against Zfp212, the z-score is inactive: -0.125.

As for CGUGACUAUUCUGAUAAGUTT against Arfrp2, the z-score is inactive: 0.787.

For the sequence GGUUAGAGGGAGAAGUGAATT against Grinl1a, the z-score is inactive: -1.56.

For the sequence GCUUUUGACACUUAUAUGATT against Ptk7, the z-score is inactive: 0.589.
